Experimental data published in patent US7262301B1, “Zinc-chelating ratiometric fluorescent probes and related methods” (Northwestern University, priority 2003, dated 2007).

Assay: Quantum yield determination by fluorescence spectroscopy against fluorescein
Format: physicochemical
Conditions: standard fluorescein in 0.1 N NaOH

With `COc1cc(O)c(-c2nc3c(CNCc4ccccn4)cccc3o2)cc1OC` [Zinbo-5, 2-(4,5-dimethoxy-2-hydroxyphenyl)-4-(2-pyridlmethyl)aminomethylbenzoxazole] the “Quantum yield, apo form” value was 0.02 and the “Quantum yield, zinc complex” value was 0.10.
